Reference: PubChem BioAssay AID588590 (National Center for Advancing Translational Sciences (NCATS), 2011)
The whole screen tested about 390,000 compounds, of which about 4,000 (1%) were called active. Inconclusive means that the source gave no clear call. Such entries were picked first, then a sample of the others. Calls come from the whole dose curve; as a rule, active = well fitted inhibition curve with a large enough effect; inconclusive = small, poorly fitted or top-dose-only effect, or another doubt; inactive = no such curve, though single readings can be large or run the other way. Potencies of inconclusive entries are doubtful fits and often do not repeat.

Chains of the proteins cited; added tags and fusions are not shown. Lines headed by an entry give the natural chain unless they say otherwise; changes in a name come on top.
UniProt Q9UNA4: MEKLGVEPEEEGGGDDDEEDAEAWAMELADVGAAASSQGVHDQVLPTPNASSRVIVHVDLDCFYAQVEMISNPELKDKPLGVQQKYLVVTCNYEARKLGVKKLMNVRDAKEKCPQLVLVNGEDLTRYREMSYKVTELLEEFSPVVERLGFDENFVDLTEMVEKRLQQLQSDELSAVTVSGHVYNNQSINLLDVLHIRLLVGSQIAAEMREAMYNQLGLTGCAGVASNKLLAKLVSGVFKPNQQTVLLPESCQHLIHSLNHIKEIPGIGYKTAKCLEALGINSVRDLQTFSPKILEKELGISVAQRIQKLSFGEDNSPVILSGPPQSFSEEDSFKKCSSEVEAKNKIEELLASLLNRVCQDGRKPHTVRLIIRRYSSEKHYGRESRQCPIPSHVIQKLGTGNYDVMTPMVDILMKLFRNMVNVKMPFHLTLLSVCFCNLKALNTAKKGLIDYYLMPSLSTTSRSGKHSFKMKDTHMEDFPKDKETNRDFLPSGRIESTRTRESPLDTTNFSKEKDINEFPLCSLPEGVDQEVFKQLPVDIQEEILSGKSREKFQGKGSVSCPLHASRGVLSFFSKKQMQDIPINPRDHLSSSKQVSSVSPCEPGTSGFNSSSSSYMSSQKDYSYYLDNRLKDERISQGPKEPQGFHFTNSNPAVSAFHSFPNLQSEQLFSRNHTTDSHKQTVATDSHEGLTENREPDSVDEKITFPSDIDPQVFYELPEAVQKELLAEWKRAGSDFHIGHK

Molecular target: DNA polymerase iota (Homo sapiens) (UniProt Q9UNA4)
Test: qHTS for Inhibitors of Polymerase Iota
Settings: Pol iota fluorescent replication assay, 10 min; series mostly up to 115 µM; activity, negative = inhibition: at the top concentration
How it was run: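 Fluorescent replication assay read twice, at 0 min and 10 min after adding 50 nM (final) substrate. Enzyme (10 nM) and compounds were first incubated 15 min at room temperature; enzyme-free buffer wells were negative controls.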
Potency is the fitted concentration of half-maximal effect.

activity, negative = inhibition, inactive:
CN1CCN(c2ncc3c(n2)CCN(Cc2cc(Br)cs2)C3)CC1 1.71%
CN(C)c1ccc(CNC(=O)C2CCCN(S(=O)(=O)c3ccc4c(c3)oc(=O)n4C)C2)cc1 (stereo unspecified) 19%
Cn1c(=O)n(-c2ccc(C(C)(C)C#N)cc2)c2c3cc(-c4cnc5ccccc5c4)ccc3ncc21 18.2% [at 229 µM]
COc1ccccc1CNC(=O)Cc1c(C)c2c(cc(C)c3c(C)coc32)oc1=O 6.51%
Cc1cc(N2C(=O)C=CC2=O)c([N+](=O)[O-])cc1C -24.1%
O=C(NC1CCCC1)c1ccc2c(c1)N(Cc1ccc(C(F)(F)F)cc1)C(=O)c1ccccc1S2 13%
Cc1ccc(NC(=O)CN2C(=O)CCc3cc(S(=O)(=O)N4CCOCC4)ccc32)cc1N(C)C 47.6%
O=C(CCc1nc2cccnc2n1Cc1cccs1)Nc1cccc(C(F)(F)F)c1 -4.03%
Cc1c(C(=O)NC(C)c2ccccn2)oc2c(Cl)cccc12 (stereo unspecified) 20.6%
Cc1ccc(/C=C/C(=O)O)cc1S(=O)(=O)N1CCCc2ccccc21 -5.41%
COc1ccc(-c2nc3cc(NC(=O)Cc4ccc(Cl)cc4)ccc3o2)cc1OC 12.3%
Cc1ccc(CCNC(=O)CCN2N=C(c3ccc(C)cc3)CCC2=O)cc1 -1.51%
O=C1c2ccccc2NC(c2ccc(-c3ccc(F)cc3)o2)N1O (stereo unspecified) 10.2%
Cc1nc2c(C(=O)NCc3ccccc3)cnn2c(C)c1Cc1ccc(F)cc1 -16.2%
COc1ccc(Cl)cc1NC(=O)c1cc(C)nc2c1c(C)nn2-c1ccccc1 11.5%
CCC(ONc1ccccc1C(F)(F)F)(C(=O)NN(C)C)c1ccccc1 (stereo unspecified) 5.77%
O=C(CC1N=C2c3ccccc3N=C(SCc3ccccc3F)N2C1=O)NCCc1ccccc1 (stereo unspecified) 3.04%
CCCCC(=O)Nc1cc(C)c(O)c(-c2nc3ncccc3o2)c1 12.8%
Cc1ccc(O)c(N=NC2=C(O)CC(C)(C)CC2=O)c1 -3.86%
NS(=O)(=O)c1ccc(N=C2C(=O)Nc3ccccc32)cc1 29%
COC(=O)[C@@H](Cc1c[nH]c2ccccc12)NC(=O)C1CCCN(S(=O)(=O)c2ccc(C)cc2)C1 (stereo partly specified) 18.1%
COc1ccc(NC(=O)Cn2cc(C(=O)c3ccccc3)c(=O)c3cc(OC)ccc32)c(OC)c1 -3.79%
COc1cc(C(=S)N2CCCC2)ccc1O 44.2%

Potency, active:
O=S(=O)(C/C(=C/CO)S(=O)(=O)c1ccccc1)c1ccccc1 22.4 µM
O=c1c(OC2OC(CO)C(O)C(O)C2OC2OC(CO)C(O)C(O)C2O)c(-c2ccc(O)cc2)oc2cc(O)cc(O)c12 (stereo unspecified) 28.2 µM
COCCN=c1scc(-c2ccco2)n1/N=C/c1ccc(O)c(O)c1O 2 µM

Potency, inconclusive:
C=CCSC1=C(C#N)C(c2ccccc2Cl)C(C(=O)c2cccs2)C(O)(C(F)(F)F)N1 (stereo unspecified) 39.8 µM [inhibitor, single point]
C=CCOCCN1C(=O)C2C(c3ccccc3)C=CC(c3ccccc3)C2C1=O (stereo unspecified) 2.82 µM [inhibitor, full curve, poor fit]
O=C(Nc1cc(S(=O)(=O)N2CCCCC2)ccc1Cl)C1COc2ccccc2O1 (stereo unspecified) 79.4 µM [inhibitor, partial curve]
O=C1NC(=S)CN1c1ccccc1 17.8 µM [inhibitor, partial curve]
CCOc1ccc(CCN2C(=O)C(=O)N([C@@H](Cc3ccc(O)cc3)CN3CCC[C@@H]3CN3C(=O)C(=O)NC[C@@H]3Cc3ccccc3)C[C@@H]2Cc2ccccc2)cc1 79.4 µM [inhibitor, single point]
COc1ccc(CCNC(=O)C(=O)NCC(c2ccc3c(c2)OCO3)N2CCOCC2)cc1 (stereo unspecified) 89.1 µM [inhibitor, partial curve, poor fit]
c1cc2[nH]snc2c2nc(C3CC3)nc12 39.8 µM [inhibitor, single point]
COc1ccc(-c2nnc(SC)nc2-c2ccc(OC)c([N+](=O)[O-])c2)cc1[N+](=O)[O-] 22.4 µM [inhibitor, full curve]
Cc1onc(-c2ccccc2Cl)c1C(=O)NC(=S)Nc1ccc(C(C)C)cc1 56.2 µM [inhibitor, partial curve, poor fit]
Cc1oc(C)c2c(=O)ccc3c(c12)OC(N)=C(C#N)C3c1ccccc1Cl (stereo unspecified) 17.8 µM [inhibitor, full curve, poor fit]
Cc1c(O)ccc2cc(S(=O)(=O)c3ccccc3)c(=O)oc12 31.6 µM [inhibitor, single point]
Cc1c(C(=O)N2CCN(c3ccccn3)CC2)oc2c(F)cccc12 89.1 µM [inhibitor, single point]
COc1ccc(/C=N/c2c(-c3ccco3)nc3ccccn23)cc1OC 35.5 µM [inhibitor, full curve, poor fit]
O=C(OCc1cc(=O)oc2cc(O)ccc12)c1cc(S(=O)(=O)N2CCOCC2)ccc1F 50.1 µM [inhibitor, partial curve, poor fit]
COc1cccc(C2c3cc4c(cc3OC(C)(N3CCCC3)C2C)OCO4)c1O (stereo unspecified) 89.1 µM [inhibitor, single point]
CCCNC(=O)c1ccc(N2CCC3(CC2)CC(c2cccc(Br)c2)=NO3)c(NC(=O)c2ccccc2)c1 28.2 µM [inhibitor, partial curve, poor fit]
COc1ccc(Nc2c3c(nc4ccc(NC(=O)/C=C/c5cc(OC)c(OC)c(OC)c5)cc24)CCCC3)cc1OC 17.8 µM [inhibitor, partial curve, poor fit]
O=C(N[C@H](Cc1cc(=O)[nH]c2ccccc12)C(=O)O)c1ccc(Cl)cc1 89.1 µM [inhibitor, single point]
O=C(C1=C(O)C(=O)N(Cc2ccco2)C1c1cccnc1)c1cc2ccccc2o1 (stereo unspecified) 35.5 µM [inhibitor, partial curve, poor fit]
Cc1cc[n+](-c2[nH]c(=O)sc2/C=N/NC(=O)c2ccccc2[O-])cc1C 22.4 µM [inhibitor, full curve, poor fit]
Cc1ccc(/C=C/C(=O)OCC(=O)NC(C)c2ccccc2)o1 (stereo unspecified) 79.4 µM [inhibitor, single point]
O=C(CSc1n[nH]c(-c2cccs2)n1)NC1CCS(=O)(=O)C1 (stereo unspecified) 63.1 µM [inhibitor, partial curve, poor fit]
COc1ccccc1-c1ccc(SCc2ccc(F)cc2)nn1 63.1 µM [inhibitor, partial curve, poor fit]
CC(=O)Oc1ccccc1N(C(C)=O)S(=O)(=O)c1cccc([N+](=O)[O-])c1 14.1 µM [inhibitor, partial curve, poor fit]
CCCCCCCC(=O)NC(Nc1ccccc1OC)C(Cl)(Cl)Cl (stereo unspecified) 89.1 µM [inhibitor, single point]
CCOC(=O)c1c(C(F)(F)C(F)(F)C(F)(F)C(F)(F)F)n[nH]c1C 22.4 µM [inhibitor, single point]
CC1=C(C(=O)Nc2ccccc2)C(c2cccnc2)n2nc(SCc3ccccc3F)nc2N1 (stereo unspecified) 79.4 µM [inhibitor, single point]
NCC(=O)c1c[nH]c2ccccc12 25.1 µM [inhibitor, full curve, poor fit]
Cc1ccc(NC(=O)c2cc(-c3ccccc3O)n[nH]2)cc1C 14.1 µM [inhibitor, partial curve]
O=C(CSc1nc2ccccc2s1)N1CCN(C(=O)c2ccco2)CC1 17.8 µM [inhibitor, single point]
CC(=O)NN1C(=O)c2ccc(Oc3cccc([N+](=O)[O-])c3)cc2C1=O 70.8 µM [inhibitor, partial curve]
O=C(O)CCC(=O)Nc1ccc(-c2csc(Nc3cccc4ccccc34)n2)cc1 28.2 µM [inhibitor, single point]
O=C1/C(=C/c2ccco2)Cc2ccccc21 28.2 µM [inhibitor, single point]
Cn1cc(CCCC(=O)NCc2ccccc2)c2ccccc21 10 µM [inhibitor, partial curve, poor fit]
N#Cc1ccccc1OCC(=O)Nc1ccccc1C(=O)NC1CC1 50.1 µM [inhibitor, partial curve, poor fit]
O=C(NCCC(c1ccccc1)c1ccccc1)c1ccc(Br)o1 1.12 µM [inhibitor, full curve, poor fit]
CCCC(=O)NCCc1c2n(c3ccc(OC)cc13)Cc1ccccc1-2 0.0891 µM [inhibitor, full curve, poor fit]
O=C(CSc1n[nH]c(=O)[nH]c1=O)Nc1ccc2c(c1)C(=O)c1ccccc1C2=O 10 µM [inhibitor, full curve, poor fit]
C[C@@H]1CC=C[C@@H]2[C@H]1C(=O)N(Cc1ccccc1)[C@H]2c1cccc(C#Cc2ccccc2)c1 39.8 µM [inhibitor, single point]
O=C(OCc1ccccc1)N1C=CC2CC1c1c(Cl)cccc12 (stereo unspecified) 39.8 µM [inhibitor, partial curve, poor fit]

Quoted at random: 4 compounds from above.
Potency, inconclusive:
Cc1c(C(=O)N2CCN(c3ccccn3)CC2)oc2c(F)cccc12 89.1 µM [inhibitor, single point]
O=C(CSc1nc2ccccc2s1)N1CCN(C(=O)c2ccco2)CC1 17.8 µM [inhibitor, single point]
CCOC(=O)c1c(C(F)(F)C(F)(F)C(F)(F)C(F)(F)F)n[nH]c1C 22.4 µM [inhibitor, single point]
CCCC(=O)NCCc1c2n(c3ccc(OC)cc13)Cc1ccccc1-2 0.0891 µM [inhibitor, full curve, poor fit]

A draw from above in order of length of the SMILES, smallest number first.
Potency, inconclusive:
Cc1c(C(=O)N2CCN(c3ccccn3)CC2)oc2c(F)cccc12 89.1 µM [inhibitor, single point]
COc1cccc(C2c3cc4c(cc3OC(C)(N3CCCC3)C2C)OCO4)c1O (stereo unspecified) 89.1 µM [inhibitor, single point]
O=C(OCc1cc(=O)oc2cc(O)ccc12)c1cc(S(=O)(=O)N2CCOCC2)ccc1F 50.1 µM [inhibitor, partial curve, poor fit]
